Binding data for one substance are collected here from publication PMC6720540.

Chains of the proteins cited; added tags and fusions are not shown.
UniProt P01106: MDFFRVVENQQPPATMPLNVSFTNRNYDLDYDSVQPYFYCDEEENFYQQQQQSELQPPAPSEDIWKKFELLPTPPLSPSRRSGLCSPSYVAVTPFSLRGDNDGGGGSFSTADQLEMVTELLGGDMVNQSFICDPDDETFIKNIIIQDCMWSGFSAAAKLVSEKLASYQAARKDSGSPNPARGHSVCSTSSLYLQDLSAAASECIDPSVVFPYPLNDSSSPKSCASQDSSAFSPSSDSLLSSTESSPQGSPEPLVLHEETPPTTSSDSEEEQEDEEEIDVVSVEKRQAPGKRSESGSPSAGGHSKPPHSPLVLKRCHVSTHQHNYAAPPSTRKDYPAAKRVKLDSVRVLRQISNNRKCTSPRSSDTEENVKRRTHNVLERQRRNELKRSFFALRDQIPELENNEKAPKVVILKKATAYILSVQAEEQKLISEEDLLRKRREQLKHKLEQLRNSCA
UniProt P46527: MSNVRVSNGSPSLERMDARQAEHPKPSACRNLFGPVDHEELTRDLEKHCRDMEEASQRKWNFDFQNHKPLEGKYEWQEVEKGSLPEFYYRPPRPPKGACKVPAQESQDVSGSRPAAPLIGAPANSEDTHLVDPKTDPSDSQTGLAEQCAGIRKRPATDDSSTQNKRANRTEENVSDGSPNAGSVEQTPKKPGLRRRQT

These are yes or no findings as the source states them, for the method shown. Binding seen in cells or lysates may run through a third protein. Some results given as binding are weak or reduced against the parent protein; the word gives no strength.

This test has as its target c-Myc (human (endogenous in Huh7)) (UniProt P01106). Kind of test: co-IP; endogenous proteins of Huh7 cells, with or without Pyrogallol; NP-40 lysis buffer, 300 ug of proteins incubated overnight with c-Myc antibody at 4 C, protein A/G Plus-beads, immunoblotting with the indicated antibodies.

In the case of “p27 (Cyclin-dependent kinase inhibitor 1B) (from UniProt P46527 1-198)”, the binding entry is “binds”.
